# Laboratory results: PubChem BioAssay AID1259308 (NCATS, 2017)
# Screen: 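Knock-downs that increase output of a recombinant reporter protein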 (primary screen)
# Cells: human HEK293 embryonic kidney cells stably expressing firefly luciferase (HEK-CMV-Luc2-Hygro)
# Reagents: single siRNA against human genes, 0.8 pmol siRNA per well
# Duration: 72 h
# Detection: 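Reporter luminescence and viable-cell signal on separate replicate plates, given as percent of non-targeting control and median/MAD z-scores, plus per-cell luciferase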
# Reading the numbers: total luciferase, z-score: higher = more reporter protein produced
# Hit rule: 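An siRNA counts as active if its total luciferase robust z-score exceeds 3; genes with two or more such siRNAs out of three were retested with fresh siRNAs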
# Meaning of the calls: active = raised luciferase; inactive = no rise
# In all, the deposit lists about 59,000 reagents; shown is a random part of them. About 1,510 of all reagents (2.6%) count as active. 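Calls use total luciferase alone and ignore viability, so some active siRNAs may act by altering cell number.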 Reagents against one gene are numbered here. Further read-outs or replicates are left out here.
Target gene,reagent no.,"total luciferase, z-score",activity call
KIFC2,1,-0.109,inactive
KIFC2,2,2.16,inactive
KIFC2,3,-0.331,inactive
AARS2,1,0.0528,inactive
AARS2,2,-0.0845,inactive
AARS2,3,-0.965,inactive
BORCS5,1,1.9,inactive
BORCS5,2,2.15,inactive
BORCS5,3,0.298,inactive
CTTNBP2NL,1,2.34,inactive
CTTNBP2NL,2,0.132,inactive
CTTNBP2NL,3,0.0495,inactive
MCCD1,1,1.94,inactive
MCCD1,2,0.608,inactive
MCCD1,3,1.42,inactive
RFX8,1,-1.27,inactive
RFX8,2,-2.31,inactive
RFX8,3,1.25,inactive
RFX8,4,0.365,inactive
RFX8,5,-0.584,inactive
RFX8,6,0.257,inactive
MC2R,1,0.437,inactive
MC2R,2,-1.2,inactive
MC2R,3,-1.81,inactive
ANO1,1,0.123,inactive
ANO1,2,0.144,inactive
ANO1,3,-1.32,inactive
RAB40AL,1,0.662,inactive
RAB40AL,2,1.05,inactive
RAB40AL,3,0.344,inactive
PRRG4,1,1.03,inactive
PRRG4,2,-0.682,inactive
PRRG4,3,-0.279,inactive
PHOX2A,1,0.512,inactive
PHOX2A,2,2,inactive
PHOX2A,3,0.652,inactive
DIDO1,1,-0.33,inactive
DIDO1,2,0.556,inactive
DIDO1,3,4.6,active
